Assay results: PubChem BioAssay AID504467 (National Center for Advancing Translational Sciences (NCATS), 2011)
Screen size: about 330,000 compounds; about 7,700 (2.3%) were called active. The shares of active, inactive and inconclusive entries below differ from those in the screen. Calls come from the whole dose curve; as a rule, active = well fitted inhibition curve with a large enough effect; inconclusive = small, poorly fitted or top-dose-only effect, or effect the other way; inactive = flat fitted curve, though single readings scatter. Where the call is inconclusive, the potency comes from a doubtful curve fit.
% is set by controls: 0 for no effect and ±100 for the full control effect; potency is the fitted concentration of half-maximal effect.

Experiment: qHTS screen for small molecules that inhibit ELG1-dependent DNA repair in human embryonic kidney (HEK293T) cells expressing luciferase-tagged ELG1; note: nearly all actives have a fitted effect of over 55% in size
Details: HEK293T ELG1-luciferase reporter, luminescence, 16 h, DNA damage induced by 5-fluorouridine; activity change, negative = inhibition: at 46.1 µM (top of the series)
Outline: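 HEK293T cells expressing luciferase-tagged ELG1 (2,000/well) received 5-Fluorouridine plus compound or DMSO for 16 hr at 37 °C. Luciferase was read by ONE-Glo luminescence after 30 min at room temperature.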
In the case of `COc1cccc(/C=C2/SC(=S)N(CC(=O)NNC(=O)c3ccccc3OC)C2=O)c1`, the “activity change, negative = inhibition” value is reported as inactive: -0.64%. With `Brc1cc(Br)c2ncnc(N3CCCCC3)c2c1` the Potency was inconclusive: 18.4 µM [inhibitor, single point]. For `COc1ccc(/C=C/C(=O)Nc2c(C(=O)O)[nH]c3ccccc23)cc1OC`, the “activity change, negative = inhibition” value was inactive: -8.32%. With `CC1c2[nH]c3ccccc3c2CCN1C(=O)Nc1ccccc1` (stereo not drawn) the Potency was inconclusive: 23.1 µM [inhibitor, single point]. For `COC(=O)CCC(=O)N(C)CC1CCCN(CCc2cccc(C(F)(F)F)c2)C1` (stereo not drawn), the Potency was inconclusive: 35.5 µM [inhibitor, single point]. In the case of `COc1ccc(NC(=O)CSCC(=O)Nc2cc(Cl)ccc2N2CCCC2)cc1`, the Potency is reported as inconclusive: 18.3 µM [inhibitor, single point]. For `COc1ccc(-c2c3c(nc4sc5c(Cl)nc(C)nc5c24)CCC3)cc1`, the “activity change, negative = inhibition” value was inactive: 15.8%. With `COC(=O)c1sccc1NC(=S)N1CCC(C(N)=O)CC1` the Potency was inconclusive: 0.73 µM [inhibitor, single point]. In the case of `O=C(CCCOc1ccccc1)NNC(=O)c1ccc(Cl)cc1`, the Potency is reported as inconclusive: 4.61 µM [activator, single point]. In the case of `COc1ccc(NS(=O)(=O)c2cc(C(=O)N3CCN(C/C=C/c4ccccc4)CC3)ccc2C)cc1`, the Potency is reported as inconclusive: 25.9 µM [inhibitor, single point]. For `CCOc1cc(/C=N/n2c(COc3ccccc3)n[nH]c2=S)ccc1O`, the “activity change, negative = inhibition” value was inactive: 7.43%. With `COc1ccc(C(=O)ON=C2C=C(C)C(=O)C(C)=C2)cc1` the “activity change, negative = inhibition” value was inactive: 4.79%. For `CCOc1cc(/C=C(\C(=O)O)c2ccc(S(=O)(=O)N3CCCC3)s2)ccc1OC`, the Potency was inconclusive: 35.5 µM [activator, single point]. In the case of `Cc1ccc(NC(=S)N(C)C)cc1C`, the “activity change, negative = inhibition” value is reported as inactive: 11.2%. In the case of `Cc1ccc(-n2c(C)n[nH]c2=S)cc1`, the “activity change, negative = inhibition” value is reported as inactive: 14.7%. With `O=C(O)c1ccc(OCc2ccc(C(=O)O)o2)cc1` the Potency was inconclusive: 23.1 µM [activator, single point]. For `Cc1ccc(-c2ccc(=O)n(Cc3cc(C)ccc3C)n2)cc1`, the Potency was inconclusive: 18.3 µM [inhibitor, partial curve, poor fit]. In the case of `Cc1ccc(C)c(NC(=O)c2ccc3c(c2)N(Cc2ccc(F)cc2)C(=O)CS3=O)c1` (stereo not drawn), the Potency is reported as inconclusive: 29.1 µM [inhibitor, single point]. In the case of `O=C(CSc1nnc(-c2ccc3c(c2)OCCO3)o1)N1CCCC1`, the Potency is reported as inconclusive: 6.51 µM [activator, partial curve]. For `Cn1/c(=N/N=C/c2ccc(Cl)c([N+](=O)[O-])c2)sc2ccccc21`, the Potency was inconclusive: 20.6 µM [activator, single point]. In the case of `CC(=O)NC(c1ccccc1)c1cccnc1` (stereo not drawn), the “activity change, negative = inhibition” value is reported as inactive: -4.18%. For `Cc1cc(NC(=O)c2ccc(NC(=O)C3CC3)cc2)no1`, the Potency was inconclusive: 20.6 µM [activator, partial curve]. In the case of `COc1ccc(C(=O)NCc2nnc(SCC(=O)N3CCc4ccccc43)n2Cc2ccccc2)cc1`, the Potency is reported as inconclusive: 6.51 µM [inhibitor, partial curve, poor fit]. With `CCCCOc1ccc(C(=O)NCC(=O)NCC(c2ccco2)N2CCCCC2)cc1` (stereo not drawn) the “activity change, negative = inhibition” value was inactive: -7.11%. For `CCOC(=O)COc1ccccc1C(=O)c1cnn(-c2ccccc2)c1`, the “activity change, negative = inhibition” value was inactive: 21.7%. In the case of `COc1cccc(/C=N/NC(=O)c2ccc(OCc3cccc(Br)c3)cc2)c1`, the “activity change, negative = inhibition” value is reported as inactive: -11.3%. With `COc1ccccc1-c1noc(-c2ccccc2C(=O)Nc2ccccc2)n1` the “activity change, negative = inhibition” value was inactive: 1.94%. With `COc1ccccc1Oc1ccc(S(=O)(=O)N2CCOCC2)cc1S(=O)(=O)N1CCOCC1` the “activity change, negative = inhibition” value was inactive: 3.24%. In the case of `Cc1nc(-c2ccc(NC(=O)c3ccccc3C)cc2)cs1`, the Potency is reported as inconclusive: 2.59 µM [activator, partial curve]. With `CCOc1ccc(NC(=O)c2ccc(N3CC4CC(C3)c3cccc(=O)n3C4)c(N)c2)cc1` (stereo not drawn) the “activity change, negative = inhibition” value was inactive: 7.49%. For `Cc1cc(NC(=O)CCC(=O)N(c2ccccc2C)C(C(=O)NC2CCCC2)c2ccccc2)no1` (stereo not drawn), the “activity change, negative = inhibition” value was inactive: -16.1%. For `COc1cccc(NC(=O)N2CCC(n3nnc4ccccc43)CC2)c1`, the Potency was inconclusive: 16.4 µM [inhibitor, single point]. In the case of `CCn1nnc2cc(C(=O)N3CCC(C(=O)OC)CC3)ccc21`, the Potency is reported as inconclusive: 16.4 µM [activator, partial curve, poor fit]. With `O=c1c2ccccc2nnn1COc1cccc2ccccc12` the Potency was inconclusive: 6.51 µM [activator, single point]. For `Cc1ccc(C)n1-c1ccc(C(=O)/C=C/N(C)C)cc1`, the Potency was inconclusive: 18.3 µM [activator, partial curve]. With `COC(=O)c1c(C)[nH]c(C(=O)OCc2csc(CC(=O)Nc3ccccc3C)n2)c1C` the Potency was active: 8.2 µM. In the case of `Cc1ccccc1/C=C1\Oc2ccccc2C1=O`, the Potency is reported as inconclusive: 16.4 µM [activator, single point]. With `COc1ccc(OC)c(NC(=O)c2cc(-c3cc(Cl)ccc3O)n[nH]2)c1` the Potency was inconclusive: 20.6 µM [inhibitor, single point]. In the case of `Cc1ccccc1-n1nc(C)c2cc(C(=O)N3CCN(S(=O)(=O)c4ccc(Cl)cc4)CC3)sc21`, the Potency is reported as inconclusive: 29.1 µM [inhibitor, single point]. In the case of `O=C(COc1ccc2c(c1)OCO2)Nc1ccc(Cl)cn1`, the Potency is reported as inconclusive: 14.6 µM [activator, partial curve]. With `COC(=O)N/N=C/c1c[nH]c2ccccc12` the “activity change, negative = inhibition” value was inactive: 0.301%. In the case of `c1cnc(SCCOc2ccc3c(c2)CCC3)nc1`, the Potency is reported as inconclusive: 8.2 µM [activator, partial curve]. For `Cc1ccc(S(=O)(=O)N2CCN(C(=O)CN3CCCCC3)C2)cc1`, the “activity change, negative = inhibition” value was inactive: 3.61%. With `CN(CCO)c1c2c(nc3cc(-c4cccc(F)c4)nn13)CCCC2` the Potency was inconclusive: 4.61 µM [activator, full curve]. For `c1ccc2c(c1)ncn2CCCCOc1ccc2c(c1)CCC2`, the Potency was inconclusive: 2.91 µM [inhibitor, partial curve]. For `COc1cc(-c2cc(C(=O)Nc3ccncc3)c3ccccc3n2)cc(OC)c1OC`, the Potency was active: 6.51 µM. For `O=C(NC1CCCCC1)C(c1cccs1)N(Cc1cccs1)C(=O)c1ccco1` (stereo not drawn), the Potency was inconclusive: 0.651 µM [activator, single point]. In the case of `COC(=O)c1ccccc1S(=O)(=O)NC(=O)c1ccccc1`, the “activity change, negative = inhibition” value is reported as inactive: 20.6%. With `Cc1ccc(S(=O)(=O)NNC(=S)Nc2ccc(Cl)cc2)cc1` the Potency was inconclusive: 29.1 µM [inhibitor, single point]. In the case of `O=C(Nc1cccc(Cl)c1)NC1(C(=O)NCc2cccs2)CCCCC1`, the Potency is reported as inconclusive: 4.11 µM [inhibitor, partial curve, poor fit]. For `COc1ccc(-c2cc(C(F)(F)F)n3nc(C(=O)N4CCOCC4)nc3n2)cc1`, the “activity change, negative = inhibition” value was inactive: 0.468%. With `CCCCCCNS(=O)(=O)c1ccc(Cl)s1` the “activity change, negative = inhibition” value was inactive: 6.69%. In the case of `CCOC(=O)c1cnc(SC)nc1Oc1cccc(NS(=O)(=O)c2ccc(Cl)cc2)c1`, the Potency is reported as active: 23.1 µM. For `O=C(Nc1cccc(Cl)c1)NC1CC2CCC1C2` (stereo not drawn), the Potency was inconclusive: 35.5 µM [activator, single point]. With `O=C(c1cc2ccccc2oc1=O)N1CCN(c2ncccn2)CC1` the Potency was inconclusive: 20.6 µM [activator, partial curve]. With `CCCOc1ccc(C(=O)c2nc3c(n2O)CCCC3)cc1` the Potency was inconclusive: 29.1 µM [activator, single point]. With `COc1ccc(NC(=O)C2CCN(S(=O)(=O)c3c(C)nn(C)c3C)CC2)cc1` the “activity change, negative = inhibition” value was inactive: 11.5%. For `COc1ccc(C(=O)N(CC(=O)NC(C)(C)C)c2ccc3c(c2)OCCO3)cc1OC`, the Potency was inconclusive: 18.4 µM [activator, single point]. In the case of `CC(=O)c1cccc(NC(=O)CCOc2ccccc2)c1`, the Potency is reported as inconclusive: 16.4 µM [activator, partial curve]. With `CC(=O)c1cnc2n(c1=O)CCS2` the “activity change, negative = inhibition” value was inactive: -3.79%. In the case of `O=C(CSc1cccs1)Nc1cccc2ccccc12`, the Potency is reported as inconclusive: 14.6 µM [activator, partial curve]. For `Cc1cc(C)n(-c2cccc3cccnc23)n1`, the “activity change, negative = inhibition” value was inactive: 7.77%. With `COC(=O)c1cc(-c2ccc(Br)cc2)on1` the “activity change, negative = inhibition” value was inactive: 3.37%. In the case of `CCOC(=O)CSc1nc(N2CCOCC2)c2c(c1C#N)CC(C)(C)OC2`, the Potency is reported as active: 2.06 µM. With `Cc1cccc(N=C2NN=C(c3ccccc3F)CS2)c1C` the Potency was inconclusive: 2.59 µM [activator, single point]. In the case of `Cc1ccccc1C(=O)O[C@H]1[C@H](Cc2ccccc2)NS(=O)(=O)[C@H]2CC3C=C[C@]12O3`, the Potency is reported as inconclusive: 20.6 µM [activator, single point]. With `CCOc1ccccc1N1C(=O)CC(Nc2ccc(N3CCOCC3)cc2)C1=O` (stereo not drawn) the Potency was inconclusive: 3.66 µM [inhibitor, partial curve, poor fit]. In the case of `COc1ccc(CC(=O)Nc2cc(S(=O)(=O)Nc3ccc(OC)cc3)ccc2OC)cc1`, the Potency is reported as inconclusive: 23.1 µM [inhibitor, single point]. For `CCc1cc(C(=O)Nc2cc(S(=O)(=O)N(CC)CC)ccc2N2CCOCC2)sc1C`, the Potency was inconclusive: 8.2 µM [inhibitor, partial curve]. For `O=C(CCCOc1ccc(Cl)cc1)N1CCOCC1`, the Potency was inconclusive: 14.1 µM [activator, partial curve, poor fit]. In the case of `COc1ccc(NC(=O)CN(C)C(=O)CCCNC(=O)c2ccc(Cl)cc2)cc1`, the Potency is reported as inconclusive: 29.1 µM [activator, single point]. In the case of `CCC(=O)Nc1ccc2nc(SCC(=O)N3CCCC3)sc2c1`, the Potency is reported as inconclusive: 14.6 µM [activator, partial curve, poor fit]. For `CN(C(=O)c1ccc(F)cc1)c1ccc(OCC(=O)Nc2ccccc2C(=O)O)cc1`, the Potency was inconclusive: 20.6 µM [inhibitor, single point].
